Laboratory results: PMC7600800
These are yes or no findings as the source states them, for the method shown. For some of these results: Binding seen in cells or lysates may run through a third protein. Some entries that bind do so weakly or less than the wild type.

By UniProt entry, the sequences of proteins in these tests, tags left out. Where a name states a change or a piece, a line headed by the entry shows the natural chain unless it says otherwise.
UniProt P46527: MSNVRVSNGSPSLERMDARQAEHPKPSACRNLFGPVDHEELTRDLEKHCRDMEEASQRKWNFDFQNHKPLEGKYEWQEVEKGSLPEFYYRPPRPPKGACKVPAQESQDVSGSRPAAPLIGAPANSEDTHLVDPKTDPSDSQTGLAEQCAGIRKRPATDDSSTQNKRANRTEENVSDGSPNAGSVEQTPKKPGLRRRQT
UniProt Q61937: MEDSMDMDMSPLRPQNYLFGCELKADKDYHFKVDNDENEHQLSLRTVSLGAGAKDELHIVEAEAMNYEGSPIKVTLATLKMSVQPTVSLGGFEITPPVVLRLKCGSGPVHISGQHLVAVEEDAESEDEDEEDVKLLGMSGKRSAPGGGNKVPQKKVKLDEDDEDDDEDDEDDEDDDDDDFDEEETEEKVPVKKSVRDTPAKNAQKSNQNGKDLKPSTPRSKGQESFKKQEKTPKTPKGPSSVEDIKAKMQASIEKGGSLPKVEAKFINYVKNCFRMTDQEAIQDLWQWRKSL
UniProt P06748: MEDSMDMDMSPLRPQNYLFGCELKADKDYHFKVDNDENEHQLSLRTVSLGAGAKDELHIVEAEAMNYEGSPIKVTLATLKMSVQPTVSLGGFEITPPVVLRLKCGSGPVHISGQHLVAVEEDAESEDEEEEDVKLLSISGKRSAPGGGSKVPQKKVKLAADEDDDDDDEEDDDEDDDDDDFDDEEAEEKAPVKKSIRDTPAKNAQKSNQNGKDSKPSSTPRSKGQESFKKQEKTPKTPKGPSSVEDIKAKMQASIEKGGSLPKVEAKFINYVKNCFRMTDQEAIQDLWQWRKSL

How the values were obtained:
[1] = target: Dox-inducible p27 (human p27 cDNA, Tet-on) (human) (UniProt P46527); assay: co-IP; lysates (RIPA buffer) of NIH/3T3, U-2 OS and HT1080 cells carrying Dox-inducible p27, 10 µg/mL Dox 24 h; anti-p27 (C-19) immunoprecipitation, Western blot for NPM1; control rabbit IgG
[2] = target: p27 wild type, yeast two-hybrid bait (human) (UniProt P46527); assay: two-hybrid; p27 baits in pGBTK (PJ69-4Aα), preys in pGAD424 (PJ69-4A), mated, spotted onto selection plates, 5 days
[3] = target: p27 RXL mutant, yeast two-hybrid bait (human) (UniProt P46527); assay: as above

Row | binding [1] | binding [2] | binding [3] | Substance
1 | binds |  |  | NPM1, endogenous mouse (from UniProt Q61937 1-292)
2 | binds |  |  | nucleophosmin isoform 1 (NPM1), endogenous human (from UniProt P06748 1-294)
3 |  | binds | no binding | nucleophosmin isoform 1 (NPM1), yeast two-hybrid prey (from UniProt P06748 1-294)
